Results on one molecule are retold here after PMC4196756.

The chains behind the UniProt entries cited, without tags or fusion partners.
UniProt Q06330: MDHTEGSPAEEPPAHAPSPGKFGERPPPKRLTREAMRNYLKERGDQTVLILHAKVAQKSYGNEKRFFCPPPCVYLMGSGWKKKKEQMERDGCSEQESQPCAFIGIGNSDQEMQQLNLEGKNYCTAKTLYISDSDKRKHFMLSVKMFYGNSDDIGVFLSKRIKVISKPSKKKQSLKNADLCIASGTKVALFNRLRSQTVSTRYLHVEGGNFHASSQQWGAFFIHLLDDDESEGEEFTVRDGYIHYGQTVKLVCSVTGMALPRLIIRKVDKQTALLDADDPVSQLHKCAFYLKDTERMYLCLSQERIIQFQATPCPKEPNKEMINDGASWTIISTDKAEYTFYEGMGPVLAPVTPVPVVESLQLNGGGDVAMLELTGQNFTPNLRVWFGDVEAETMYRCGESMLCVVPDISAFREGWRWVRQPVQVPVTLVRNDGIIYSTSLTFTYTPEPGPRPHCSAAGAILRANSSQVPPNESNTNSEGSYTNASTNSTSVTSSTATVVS

No constants are given. Whether binding was seen depends on the method and setting. Binding seen in cells or lysates may run through a third protein. Some results given as binding are weak or reduced against the parent protein; the word gives no strength. Tags and fused reporters may be left off the sequences shown.

For this assay, the target named is RBP-Jκ (recombination signal binding protein for immunoglobulin kappa J region), full-length, with HA tag (human) (UniProt Q06330). Nature of the assay: co-IP; 293T cells co-transfected with RBP-Jκ (HA tag) and wt or mt Notch2 (myc tag); lysed after 48 h; IP with HA antibody, protein G Plus-Agarose; western blotting. On the technique in general: Immunoblotting shows a protein as a band on a membrane.

B1: mutant-type (truncate) Notch2 intracellular domain, 1699-2435 aa, with six-repeating myc tag (domain or fragment, UniProt Q04721 1699-2435)
chain: MAKRKRKHGSLWLPEGFTLRRDASNHKRREPVGQDAVGLKNLSVQVSEANLIGTGTSEHWVDDEGPQPKKVKAEDEALLSEEDDPIDRRPWTQQHLEAADIRRTPSLALTPPQAEQEVDVLDVNVRGPDGCTPLMLASLRGGSSDLSDEDEDAEDSSANIITDLVYQGASLQAQTDRTGEMALHLAARYSRADAAKRLLDAGADANAQDNMGRCPLHAAVAADAQGVFQILIRNRVTDLDARMNDGTTPLILAARLAVEGMVAELINCQADVNAVDDHGKSALHWAAAVNNVEATLLLLKNGANRDMQDNKEETPLFLAAREGSYEAAKILLDHFANRDITDHMDRLPRDVARDRMHHDIVRLLDEYNVTPSPPGTVLTSALSPVICGPNRSFLSLKHTPMGKKSRRPSAKSTMPTSLPNLAKEAKDAKGSRRKKSLSEKVQLSESSVTLSPVDSLESPHTYVSDTTSSPMITSPGILQASPNPMLATAAPPAPVHAQHALSFSNLHEMQPLAHGASTVLPSVSQLLSHHHIVSPGSGSAGSLSRLHPVPVPADWMNRMEVNETQYNEMFGMVLAPAEGTHPGIAPQSRPPEGKHITTPREPLPPIVTFQLIPKGSIAQPAGAPQPQSTCPPAVAGPLPTMYQIPEMARLPSVAFPTAMMPQQDGQVAQTILPAYHPFPASVGKYPTPPSQHSYASSNAAERTPSHSGHLQGEHPYLTPSPESPDQWSSSSPHSASD
Turning to B1, the binding entry was “binds”.
